Data on one molecule can be found in publication doi:10.1101/2024.02.28.582656.

These are yes or no findings as the source states them, for the method shown. In cells and extracts the contact can be indirect. Binding can be weak; no strength is given. Sequences can lack the tags named with a protein.

In test [1] the target is GFP-R1-6 (human). As to the kind of experiment: pull-down.
Test [2] addresses GFP-R1-5 (human). Nature of the test: pull-down.

B1: GST-Sec23IP (protein, UniProt Q9Y6Y8 1-1000)
chain: MAERKPNGGSGGASTSSSGTNLLFSSSATEFSFNVPFIPVTQASASPASLLLPGEDSTDVGEEDSFLGQTSIHTSAPQTFSYFSQVSSSSDPFGNIGQSPLTTAATSVGQSGFPKPLTALPFTTGSQDVSNAFSPSISKAQPGAPPSSLMGINSYLPSQPSSLPPSYFGNQPQGIPQPGYNPYRHTPGSSRANPYIAPPQLQQCQTPGPPAHPPPSGPPVQMYQMPPGSLPPVPSSVQSPAQQQVPARPGAPSVQVPSPFLLQNQYEPVQPHWFYCKEVEYKQLWMPFSVFDSLNLEEIYNSVQPDPESVVLGTDGGRYDVYLYDRIRKAAYWEEEPAEVRRCTWFYKGDTDSRFIPYTEEFSEKLEAEYKKAVTTNQWHRRLEFPSGETIVMHNPKVIVQFQPSSVPDEWGTTQDGQTRPRVVKRGIDDNLDEIPDGEMPQVDHLVFVVHGIGPVCDLRFRSIIECVDDFRVVSLKLLRTHFKKSLDDGKVSRVEFLPVHWHSSLGGDATGVDRNIKKITLPSIGRFRHFTNETLLDILFYNSPTYCQTIVEKVGMEINHLHALFMSRNPDFKGGVSVAGHSLGSLILFDILSNQKDLNLSKCPGPLAVANGVVKQLHFQEKQMPEEPKLTLDESYDLVVENKEVLTLQETLEALSLSEYFSTFEKEKIDMESLLMCTVDDLKEMGIPLGPRKKIANFVEHKAAKLKKAASEKKAVAATSTKGQEQSAQKTKDMASLPSESNEPKRKLPVGACVSSVCVNYESFEVGAGQVSVAYNSLDFEPEIFFALGSPIAMFLTIRGVDRIDENYSLPTCKGFFNIYHPLDPVAYRLEPMIVPDLDLKAVLIPHHKGRKRLHLELKESLSRMGSDLKQGFISSLKSAWQTLNEFARAHTSSTQLQEELEKVANQIKEEEEKQVVEAEKVVESPDFSKDEDYLGKVGMLNGGRRIDYVLQEKPIESFNEYLFALQSHLCYWESEDTALLLLKEIYRTMNISPEQPQH
In the case of B1, the binding entry in test [1] and in test [2] was “binds” throughout.
